# Article PMC10630885
# Protein sequences, listed by entry. Tags and fused reporters are not part of them. Residues count along the entry.
# UniProt P11021, residues 19-654: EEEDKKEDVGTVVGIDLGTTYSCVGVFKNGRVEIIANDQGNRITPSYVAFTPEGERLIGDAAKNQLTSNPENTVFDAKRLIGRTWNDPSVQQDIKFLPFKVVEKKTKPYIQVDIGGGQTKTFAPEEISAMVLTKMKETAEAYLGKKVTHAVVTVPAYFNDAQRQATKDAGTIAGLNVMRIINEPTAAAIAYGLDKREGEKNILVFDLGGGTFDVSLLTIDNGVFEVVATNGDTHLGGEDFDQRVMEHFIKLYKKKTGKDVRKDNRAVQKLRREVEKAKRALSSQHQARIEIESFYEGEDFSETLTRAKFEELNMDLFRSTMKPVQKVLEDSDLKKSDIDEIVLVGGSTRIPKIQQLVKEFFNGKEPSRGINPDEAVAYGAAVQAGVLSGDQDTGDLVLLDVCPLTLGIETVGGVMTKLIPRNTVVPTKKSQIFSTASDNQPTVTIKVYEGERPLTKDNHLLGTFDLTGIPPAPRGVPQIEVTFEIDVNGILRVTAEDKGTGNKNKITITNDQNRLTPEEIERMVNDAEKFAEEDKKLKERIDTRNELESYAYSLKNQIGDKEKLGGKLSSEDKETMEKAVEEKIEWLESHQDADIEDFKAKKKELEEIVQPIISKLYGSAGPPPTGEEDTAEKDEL
# Target: T1, HA-tagged NRF3-BioID fusion protein (human) (UniProt Q9Y4A8)
# T1 sequence: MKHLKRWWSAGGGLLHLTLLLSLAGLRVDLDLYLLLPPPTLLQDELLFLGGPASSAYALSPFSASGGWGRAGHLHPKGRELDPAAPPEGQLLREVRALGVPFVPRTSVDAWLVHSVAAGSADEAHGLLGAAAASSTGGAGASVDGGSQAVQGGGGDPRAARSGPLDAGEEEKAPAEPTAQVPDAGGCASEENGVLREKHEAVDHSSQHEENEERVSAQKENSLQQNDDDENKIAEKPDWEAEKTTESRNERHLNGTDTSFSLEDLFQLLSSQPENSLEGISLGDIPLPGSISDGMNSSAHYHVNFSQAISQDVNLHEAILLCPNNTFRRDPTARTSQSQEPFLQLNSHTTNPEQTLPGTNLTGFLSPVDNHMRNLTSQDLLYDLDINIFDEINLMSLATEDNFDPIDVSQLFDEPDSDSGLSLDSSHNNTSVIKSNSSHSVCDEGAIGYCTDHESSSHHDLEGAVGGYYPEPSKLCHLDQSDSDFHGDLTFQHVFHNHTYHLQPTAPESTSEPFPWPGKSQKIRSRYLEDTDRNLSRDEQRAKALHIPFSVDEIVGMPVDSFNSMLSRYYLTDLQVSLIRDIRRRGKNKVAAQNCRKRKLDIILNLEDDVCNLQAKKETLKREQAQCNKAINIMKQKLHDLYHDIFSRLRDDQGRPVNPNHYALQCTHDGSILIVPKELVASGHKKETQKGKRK
# Experiment: proximity labelling; BioID in SCC13 and HaCaT cells with Dox-inducible NRF3-BioID-HA; 50 μM biotin and 1 μg/ml Dox or DMSO for 24 h, with or without 10 μM MG-132 for 6 h; streptavidin beads, LC-MS/MS; SAINT probability ≥ 0.95, all three replicates, both cell lines
substance,measurement,value
heat shock protein A5 (HSPA5) (from UniProt P11021 19-654),binding,binds

# These are yes or no findings as the source states them, for the method shown. Binding seen in cells or lysates may run through a third protein. Here binding means that the protein was enriched with, or labelled near, the bait; the list need not be complete. Sequences can lack the tags named with a protein.
